Measurements published in patent publication JP2018108089A.
Substitutions are numbered along the chain they refer to. No constants are given. Whether binding was seen depends on the method and setting. Some entries that bind do so weakly or less than the wild type. Blank lines part the entries; values can stand above or below the binder they belong to.

The chains behind the UniProt entries cited, without tags or fusion partners. Residues count along the entry.
UniProt P10646, residues 29-304: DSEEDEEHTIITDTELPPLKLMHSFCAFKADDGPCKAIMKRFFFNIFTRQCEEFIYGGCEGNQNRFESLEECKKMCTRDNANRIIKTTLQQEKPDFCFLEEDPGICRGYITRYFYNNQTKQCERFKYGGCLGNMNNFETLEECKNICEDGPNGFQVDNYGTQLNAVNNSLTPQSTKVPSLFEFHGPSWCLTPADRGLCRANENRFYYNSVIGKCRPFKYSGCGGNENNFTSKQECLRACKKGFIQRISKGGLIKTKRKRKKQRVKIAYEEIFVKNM

Biological target: human tissue factor pathway inhibitor (TFPI) (human) (UniProt P10646)
Test: ELISA, Fab from bacterial lysate on coated human TFPI

B1: TP-2B9 (Fab, V domains shown)
VH: QVQLQQSGPGLVKPSQTLSLTCAISGDSVSSNSAAWGWIRQSPGRGLEWLGMIYHRSKWYNDYAVSVKSRITINPDTSKNQFSLQLNSVTPEDTAVYYCARYSSIGHMDYWGQGTLVTVSS
VL: DIQMTQSPSSLSASVGDRVTITCRASQSIRSYLAWYQQKPGKAPKLLIYKASNLQSGVPSRFSGSGSGTDFTLTISSLQPEDFAVYYCHQYSDSPVTFGQGTKVEIKR
binding: binds

B3: TP-2C7 (Fab, V domains shown)
VH: B1 VH with M52I, H55Y, D62H, Y102S, S103N, S104W, I105S, H107Y, M108F
VL: DIQMTQSPSSLSASVGDRVTITCRASQDIRNNLAWYQQKPGKAPKLLIYAASSLQSGVPSRFSGSGSGTDFTLTISSLQPEDFAVYYCQQRNGFPLTFGQGTKVEIKR
binding: binds

B4: TP-2E3 (Fab, V domains shown)
VH: B1 VH with H55Y, Y102V, S103N, S104Q, I105Y, G106T, H107S, M108S
VL: DIALTQPASVSGSPGQSITISCTGTSSDIGGYNYVSWYQQHPGKAPKLMIYGVNYRPSGVSNRFSGSKSGNTASLTISGLQAEDEADYYCSSADKFTMSIVFGGGTKLTVLG
binding: binds

B5: TP-2C1 (Fab, V domains shown)
VH: QVQLVESGGGLVQPGGSLRLSCAASGFTFSPYVMSWVRQAPGKGLEWVSSISSSSSNTYYADSVKGRFTISRDNSKNTLYLQMNSLRAEDTAVYYCARGDSYMYDVWGQGTLVTVSS
VL: DIELTQPPSVSVAPGQTARISCSGDSIGSYYAHWYQQKPGQAPVLVIYYDSKRPSGIPERFSGSNSGNTATLTISGTQAEDEADYYCQAYTGQSISRVFGGGTKLTVLG
binding: binds

B8: TP-2G4 (Fab, V domains shown)
VH: QVQLVESGGGLVQPGGSLRLSCAASGFTFSSYAMTWVRQAPGKGLEWVSNISYSGSNTYYADSVKGRFTISRDNSKNTLYLQMNSLRAEDTAVYYCARVGYYYGFDYWGQGTLVTVSS
VL: DIELTQPPSVSVAPGQTARISCSGDALRKHYVYWYQQKPGQAPVLVIYGDNNRPSGIPERFSGSNSGNTATLTISGTQAEDEADYYCQSYDKPYPILVFGGGTKLTVLG
binding: binds

B11: TP-2A6 (Fab, V domains shown)
VH: QVQLVESGGGLVQPGGSLRLSCAASGFTFSRYAMSWVRQAPGKGLEWVSSIISSSSETYYADSVKGRFTISRDNSKNTLYLQMNSLRAEDTAVYYCARLMGYGHYYPFDYWGQGTLVTVSS
VL: DIELTQPPSVSVAPGQTARISCSGDKIGSKYVYWYQQKPGQAPVLVIYDSNRPSGIPERFSGSNSGNTATLTISGTQAEDEADYYCASYDSIYSYWVFGGGTKLTVLG
binding: binds

B12: TP-2E5 (Fab, V domains shown)
VH: QVQLQQSGPGLVKPSQTLSLTCAISGDSVSSNSAAWSWIRQSPGRGLEWLGMIFYRSKWNNDYAVSVKSRITINPDTSKNQFSLQLNSVTPEDTAVYYCARVNANGYYAYVDLWGQGTLVTVSS
VL: DIQMTQSPSSLSASVGDRVTITCRASQPIYNSLSWYQQKPGKAPKLLIYGVSNLQSGVPSRFSGSGSGTDFTLTISSLQPEDFAVYYCLQVDNLPITFGQGTKVEIKR
binding: binds

B13: TP-2A5.1 (Fab, V domains shown)
VH: QVQLVESGGGLVQPGGSLRLSCAASGFTFSSYGSWVRQAPGKGLEWVSVISGSGSSTYYADSVKGRFTISRDNSKNTLYLQMNSLRAEDTAVYYCARVNISTHFDVWGQGTLVTVSS
VL: DIELTQPPSVSVAPGQTARISCSGDNIPEKYVHWYQQKPGQAPVLVIHGDNNRPSGIPERFSGSNSGNTATLTISGTQAEDEADYYCQSFDAGSYFVFGGGTKLTVLG
binding: binds

B15: TP-2G2 (Fab, V domains shown)
VH: QVQLVESGGGLVQPGGSLRLSCAASGFTFSSYAMNWVRQAPGKGLEWVSAILSDGSSTSYADSVKGRFTISRDNSKNTLYLQMNSLRAEDTAVYYCARYPDWGWYTDVWGQGTLVTVSS
VL: DIELTQPPSVSVAPGQTARISCSGDNIRKFYVHWYQQKPGQAPVLVIYGTNKRPSGIPERFSGSNSGNTATLTISGTQAEDEADYYCQSYDSKFNTVFGGGTKLTVLG
binding: binds

B16: TP-2A2 (Fab, V domains shown)
VH: QVQLVESGGGLVQPGGSLRLSCAASGFTFSNNAMNWVRQAPGKGLEWVSTISYDGSNTYYADSVKGRFTISRDNSKNTLYLQMNSLRAEDTAVYYCARQAGGWTYSYTDVWGQGTLVTVSS
VL: DIELTQPPSVSVAPGQTARISCSGDNIRTYYVHWYQQKPGQAPVVVIYGDSKRPSGIPERFSGSNSGNTATLTISGTQAEDEADYYCQSYDSEADSEVFGGGTKLTVLG
binding: binds

More lines, now with the values ahead:

binding: binds
B2: TP-3C2 (Fab, V domains shown)
VH: QVQLQQSGPGLVKPSQTLSLTCAISGDSVSSSSAAWSWIRQSPGRGLEWLGMIYYRSKWYNHYAVSVKSRITINPDTSKNQFSLQLNSVTPEDTAVYYCARGGSGVMDVWGQGTLVTVSS
VL: B1 VL with R30T, S31N, A34N, K50D, A51V, H89Q, D93G, S94Y, V96L

binding: binds
B6: TP-3A4 (Fab, V domains shown)
VH: QVQLVESGGGLVQPGGSLRLSCAASGFTFSSYWMHWVRQAPGKGLEWVSSISYDSSNTYYADSVKGRFTISRDNSKNTLYLQMNSLRAEDTAVYYCARYGGMDYWGQGTLVTVSS
VL: DIELTQPPSVSVAPGQTARISCSGDNLRDKYASWYQQKPGQAPVLVIYSKSERPSGIPERFSGSNSGNTATLTISGTQAEDEADYYCSSYTLNPNLNYVFGGGTKLTVLG

binding: binds
B7: TP-3C3 (Fab, V domains shown)
VH: QVQLQQSGPGLVKPSQTLSLTCAISGDSVSSNSAAWGWIRQSPGRGLEWLGVIYYRSKWYNDYAVSVKSRITINPDTSKNQFSLQLNSVTPEDTAVYYCARARAKKSGGFDYWGQGTLVTVSS
VL: DIQMTQSPSSLSASVGDRVTITCRASQSINPYLNWYQQKPGKAPKLLIYAASNLQSGVPSRFSGSGSGTDFTLTISSLQPEDFAVYYCQQLDNRSITFGQGTKVEIKR

binding: binds
B9: TP-3B3 (Fab, V domains shown)
VH: B8 VH with A33G, T35H, S54M, Y59N, V99G, G100L, Y101F, Y102P, Y103G, G104Y
VL: DIELTQPASVSVAPGQTARISCSGDNLRSKYAHWYQQKPGQAPVLVIYGDNNRPSGIPERFSGSNSGNTATLTISGTQAEDEADYYCSAYAMGSSPVFGGGTKLTVLG

binding: binds
B10: TP-3B4 (Fab, V domains shown)
VH: QVQLQQSGPGLVKPSQTLSLTCAISGDSVSSNGAAWGWIRQSPGRGLEWLGHIYYRSKWYNSYAVSVKSRITINPDTSKNQFSLQLNSVTPEDTAVYYCARWGGIHDGDIYFDYWGQGTLVTVSS
VL: DIQMTQSPSSLSASVGDRVTITCRASQNISNYLNWYQQKPGKAPKLLIYGTSSLQSGVPSRFSGSGSGTDFTLTISSLQPEDFAVYYCQQYGNNPTTFGQGTKVEIKR

binding: binds
B14: TP-3A3 (Fab, V domains shown)
VH: QVQLVESGGGLVQPGGSLRLSCAASGFTFNNNAISWVRQAPGKGLEWVSAINSSSSSTSYADSVKGRFTISRDNSKNTLYLQMNSLRAEDTAVYYCARGHHRGHSWASFIDYWGQGTLVTVSS
VL: DIELTQPPSVSVAPGQTARISCSGDNIGSKYVHWYQQKPGQAPVVVIYEDSDRPSGIPERFSGSNSGNTATLTISGTQAEDEADYYCQSWDKSEGYVFGGGTKLTVLG

binding: binds
B17: TP-2G7 (Fab, V domains shown)
VH: QVQLVESGGGLVQPGGSLRLSCAASGFTFNSYAMSWVRQAPGKGLEWVSNISSNSSNTYYADSVKGRFTISRDNSKNTLYLQMNSLRAEDTAVYYCARKGGGEHGFFPSDIWGQGTLVTVSS
VL: B16 VL with I27L, R28G, V45L, S51N, K52N, S89T, E93N, A94N, D95E, E97I

binding: binds
B18: TP-3A2 (Fab, V domains shown)
VH: QVQLVESGGGLVQPGGSLRLSCAASGFTFSNYYLSWVRQAPGKGLEWVSGISYNGSSTNYADSVKGRFTISRDNSKNTLYLQMNSLRAEDTAVYYCARMWRYSLGADSWGQGTLVTVSS
VL: DIELTQPPSVSVAPGQTARISCSGDNIGSRYAYWYQQKPGQAPVVVIYDDSDRPSGIPERFSGSNSGNTATLTISGTQAEDEADYYCAAYTFYARTVFGGGTKLTVLG

binding: binds
B19: TP-2G6 (Fab, V domains shown)
VH: B2 VH with M52I, H62D, G102H, G103S, S104M, G105V, V106G, M107F
VL: DIVLTQSPATLSLSPGERATLSCRASQYVTSSYLAWYQQKPGQAPRLLIYGSSRATGVPARFSGSGSGTDFTLTISSLEPEDFATYYCQQYSSSPITFGQGTKVEIKR

binding: binds
B20: TP-2G9 (Fab, V domains shown)
VH: QVQLVESGGGLVQPGGSLRLSCAASGFTFNSYAMTWVRQAPGKGLEWVSAIKSDGSNTYYADSVKGRFTISRDNSKNTLYLQMNSLRAEDTAVYYCARNDSGWFDVWGQGTLVTVSS
VL: DIALTQPASVSGSPGQSITISCTGTSSDLGGFNTVSWYQQHPGKAPKLMIYSVSSRPSGVSNRFSGSKSGNTASLTISGLQAEDEADYYCQSYDLNNLVFGGGTKLTVLG

binding: binds
B21: TP-3C1 (Fab, V domains shown)
VH: QVQLVESGGGLVQPGGSLRLSCAASGFTFSSYSMHWVRQAPGKGLEWVSGISYSSSFTYYADSVKGRFTISRDNSKNTLYLQMNSLRAEDTAVYYCARALGGGVDYWGQGTLVTVSS
VL: B20 VL

binding: binds
B22: TP-3D3 (Fab, V domains shown)
VH: QVQLVESGGGLVQPGGSLRLSCAASGFTFSSYASWVRQAPGKGLEWVSGISGDGSNTHYADSVKGRFTISRDNSKNTLYLQMNSLRAEDTAVYYCARYDNFYFDVWGQGTLVTVSS
VL: DIELTQPPSVSVAPGQTARISCSGDSLGSKFAHWYQQKPGQAPVLVIYDDSNRPSGIPERFSGSNSGNTATLTISGTQAEDEADYYCSTYTSRSHSYVFGGGTKLTVLG
